Reference: the supplement of paper PMC10849652
The other results are listed elsewhere or left out.

Protein sequences, listed by entry. Tags and fused reporters are not part of them. Lines headed by an entry give the natural chain unless they say otherwise; changes in a name come on top.
UniProt Q15311: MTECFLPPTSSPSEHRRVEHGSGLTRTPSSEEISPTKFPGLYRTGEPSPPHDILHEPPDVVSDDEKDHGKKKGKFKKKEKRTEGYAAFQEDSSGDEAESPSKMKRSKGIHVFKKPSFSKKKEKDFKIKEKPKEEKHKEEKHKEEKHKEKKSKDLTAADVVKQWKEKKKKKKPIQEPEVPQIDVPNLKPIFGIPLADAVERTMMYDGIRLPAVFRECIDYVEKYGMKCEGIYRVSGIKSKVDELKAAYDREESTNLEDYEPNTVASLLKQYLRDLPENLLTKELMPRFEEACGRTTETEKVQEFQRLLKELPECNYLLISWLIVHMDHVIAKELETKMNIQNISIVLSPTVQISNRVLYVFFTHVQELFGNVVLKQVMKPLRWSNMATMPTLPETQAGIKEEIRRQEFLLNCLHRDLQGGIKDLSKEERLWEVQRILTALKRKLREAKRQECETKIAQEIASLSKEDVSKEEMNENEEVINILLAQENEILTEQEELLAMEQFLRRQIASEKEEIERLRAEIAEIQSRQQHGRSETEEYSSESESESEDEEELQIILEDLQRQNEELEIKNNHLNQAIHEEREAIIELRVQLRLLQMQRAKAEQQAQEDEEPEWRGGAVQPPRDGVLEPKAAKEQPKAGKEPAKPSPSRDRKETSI
UniProt P54727: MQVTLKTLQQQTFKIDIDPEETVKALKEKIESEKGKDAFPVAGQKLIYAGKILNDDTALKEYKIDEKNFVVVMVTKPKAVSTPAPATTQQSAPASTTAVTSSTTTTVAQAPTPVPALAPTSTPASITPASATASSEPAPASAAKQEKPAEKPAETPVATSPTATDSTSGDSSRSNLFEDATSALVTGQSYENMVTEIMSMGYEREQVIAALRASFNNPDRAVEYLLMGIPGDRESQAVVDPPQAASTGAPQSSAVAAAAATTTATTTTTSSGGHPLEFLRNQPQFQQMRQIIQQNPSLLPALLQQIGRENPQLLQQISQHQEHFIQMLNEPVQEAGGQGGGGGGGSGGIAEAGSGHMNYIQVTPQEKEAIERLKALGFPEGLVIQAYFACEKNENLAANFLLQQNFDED
UniProt P46060: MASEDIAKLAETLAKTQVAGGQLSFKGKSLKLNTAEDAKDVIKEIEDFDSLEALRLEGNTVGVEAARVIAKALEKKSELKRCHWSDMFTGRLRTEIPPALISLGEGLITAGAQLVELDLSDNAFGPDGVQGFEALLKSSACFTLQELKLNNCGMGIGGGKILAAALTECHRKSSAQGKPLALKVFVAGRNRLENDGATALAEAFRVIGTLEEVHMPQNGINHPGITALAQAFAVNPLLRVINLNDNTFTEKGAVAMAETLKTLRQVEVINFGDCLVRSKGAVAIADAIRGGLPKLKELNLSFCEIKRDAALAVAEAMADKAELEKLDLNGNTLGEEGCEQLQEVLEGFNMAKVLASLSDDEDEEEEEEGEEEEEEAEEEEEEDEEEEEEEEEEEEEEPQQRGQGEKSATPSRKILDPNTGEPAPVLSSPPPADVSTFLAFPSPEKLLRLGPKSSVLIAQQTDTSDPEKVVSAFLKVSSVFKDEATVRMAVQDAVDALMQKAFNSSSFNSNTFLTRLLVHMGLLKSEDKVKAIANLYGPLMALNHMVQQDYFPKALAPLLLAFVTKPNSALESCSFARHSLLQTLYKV
UniProt O60216: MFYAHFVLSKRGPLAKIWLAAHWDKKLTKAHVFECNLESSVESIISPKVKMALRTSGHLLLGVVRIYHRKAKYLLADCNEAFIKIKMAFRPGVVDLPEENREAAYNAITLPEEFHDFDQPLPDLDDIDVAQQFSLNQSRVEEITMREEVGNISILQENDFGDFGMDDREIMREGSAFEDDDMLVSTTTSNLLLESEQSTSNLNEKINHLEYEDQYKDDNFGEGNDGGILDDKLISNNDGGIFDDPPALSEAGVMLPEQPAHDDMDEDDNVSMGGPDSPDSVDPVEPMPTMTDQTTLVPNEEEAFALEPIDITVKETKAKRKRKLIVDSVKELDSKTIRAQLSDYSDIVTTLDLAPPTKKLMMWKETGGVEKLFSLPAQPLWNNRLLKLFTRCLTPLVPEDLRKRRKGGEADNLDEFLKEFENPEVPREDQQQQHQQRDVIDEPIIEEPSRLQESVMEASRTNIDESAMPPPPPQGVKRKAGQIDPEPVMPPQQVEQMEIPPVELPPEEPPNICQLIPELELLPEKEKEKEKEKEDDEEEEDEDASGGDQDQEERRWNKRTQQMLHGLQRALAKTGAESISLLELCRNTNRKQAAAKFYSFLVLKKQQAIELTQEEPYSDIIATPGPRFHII
UniProt P51159: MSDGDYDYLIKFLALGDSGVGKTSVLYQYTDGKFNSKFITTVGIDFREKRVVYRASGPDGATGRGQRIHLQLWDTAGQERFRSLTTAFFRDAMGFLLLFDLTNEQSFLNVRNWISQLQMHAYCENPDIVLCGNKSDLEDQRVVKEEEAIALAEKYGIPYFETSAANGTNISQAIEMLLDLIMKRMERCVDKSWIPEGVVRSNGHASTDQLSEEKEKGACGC
UniProt P20337: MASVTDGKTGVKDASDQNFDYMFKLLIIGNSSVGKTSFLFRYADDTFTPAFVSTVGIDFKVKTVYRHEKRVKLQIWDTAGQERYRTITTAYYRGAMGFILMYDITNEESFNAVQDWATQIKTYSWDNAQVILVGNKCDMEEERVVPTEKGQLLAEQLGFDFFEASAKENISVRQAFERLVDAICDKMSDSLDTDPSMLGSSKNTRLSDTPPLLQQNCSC
UniProt P53611: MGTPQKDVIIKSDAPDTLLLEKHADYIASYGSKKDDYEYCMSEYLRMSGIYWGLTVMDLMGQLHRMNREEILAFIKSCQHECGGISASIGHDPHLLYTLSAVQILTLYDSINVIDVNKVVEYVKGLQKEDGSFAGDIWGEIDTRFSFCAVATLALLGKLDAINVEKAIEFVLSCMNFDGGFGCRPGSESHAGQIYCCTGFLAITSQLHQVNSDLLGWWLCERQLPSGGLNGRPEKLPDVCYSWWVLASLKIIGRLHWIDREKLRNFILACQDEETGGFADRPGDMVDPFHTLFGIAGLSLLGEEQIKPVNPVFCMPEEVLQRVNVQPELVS
UniProt Q92930: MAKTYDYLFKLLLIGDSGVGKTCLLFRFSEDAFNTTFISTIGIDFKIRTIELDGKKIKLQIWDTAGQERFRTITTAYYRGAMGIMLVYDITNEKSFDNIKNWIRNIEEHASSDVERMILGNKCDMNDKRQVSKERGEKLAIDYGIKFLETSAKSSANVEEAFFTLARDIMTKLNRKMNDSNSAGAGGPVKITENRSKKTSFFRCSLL
UniProt Q6VN20, whole entry, looked up: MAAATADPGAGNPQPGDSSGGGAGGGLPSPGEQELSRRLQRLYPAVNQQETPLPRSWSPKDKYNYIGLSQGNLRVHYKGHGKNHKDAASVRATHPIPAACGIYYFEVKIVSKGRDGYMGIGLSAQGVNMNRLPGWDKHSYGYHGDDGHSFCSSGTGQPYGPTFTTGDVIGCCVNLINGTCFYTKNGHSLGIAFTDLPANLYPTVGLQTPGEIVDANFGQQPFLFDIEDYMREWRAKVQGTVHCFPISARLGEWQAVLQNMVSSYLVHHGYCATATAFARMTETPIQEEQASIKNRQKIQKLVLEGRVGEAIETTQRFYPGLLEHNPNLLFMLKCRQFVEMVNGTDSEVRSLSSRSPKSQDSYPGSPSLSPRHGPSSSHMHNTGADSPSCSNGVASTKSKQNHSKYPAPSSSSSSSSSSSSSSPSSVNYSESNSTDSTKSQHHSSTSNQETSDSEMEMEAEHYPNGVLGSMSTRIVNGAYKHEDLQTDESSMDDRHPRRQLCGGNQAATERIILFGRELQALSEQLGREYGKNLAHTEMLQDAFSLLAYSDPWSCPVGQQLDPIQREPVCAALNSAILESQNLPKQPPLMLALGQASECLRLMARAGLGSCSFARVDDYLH
UniProt P51151: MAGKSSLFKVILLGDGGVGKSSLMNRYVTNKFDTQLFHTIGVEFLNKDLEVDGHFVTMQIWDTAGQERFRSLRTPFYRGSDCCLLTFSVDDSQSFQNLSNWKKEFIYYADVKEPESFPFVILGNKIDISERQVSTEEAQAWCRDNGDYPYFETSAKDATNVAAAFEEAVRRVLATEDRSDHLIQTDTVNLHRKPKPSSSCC
UniProt Q9ULC3: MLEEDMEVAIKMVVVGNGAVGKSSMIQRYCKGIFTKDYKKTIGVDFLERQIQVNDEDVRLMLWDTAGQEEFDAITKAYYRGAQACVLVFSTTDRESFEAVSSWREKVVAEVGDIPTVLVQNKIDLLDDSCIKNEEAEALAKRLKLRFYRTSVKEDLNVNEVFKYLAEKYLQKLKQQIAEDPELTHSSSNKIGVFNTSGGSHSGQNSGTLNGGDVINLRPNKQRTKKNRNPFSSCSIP
UniProt O60671: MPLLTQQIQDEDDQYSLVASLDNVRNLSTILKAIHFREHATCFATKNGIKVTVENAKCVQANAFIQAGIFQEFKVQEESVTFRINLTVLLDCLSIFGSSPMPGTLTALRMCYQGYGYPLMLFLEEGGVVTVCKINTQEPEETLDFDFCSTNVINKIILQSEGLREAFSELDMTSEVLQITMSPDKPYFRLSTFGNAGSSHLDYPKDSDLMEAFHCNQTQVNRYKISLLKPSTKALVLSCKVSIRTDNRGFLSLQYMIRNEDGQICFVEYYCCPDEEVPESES
UniProt P61006: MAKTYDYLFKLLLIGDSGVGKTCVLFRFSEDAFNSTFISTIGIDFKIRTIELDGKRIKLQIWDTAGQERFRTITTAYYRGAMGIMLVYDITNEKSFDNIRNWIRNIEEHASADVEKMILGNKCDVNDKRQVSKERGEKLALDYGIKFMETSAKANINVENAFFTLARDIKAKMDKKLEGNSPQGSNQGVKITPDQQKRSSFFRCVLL
UniProt Q86X10: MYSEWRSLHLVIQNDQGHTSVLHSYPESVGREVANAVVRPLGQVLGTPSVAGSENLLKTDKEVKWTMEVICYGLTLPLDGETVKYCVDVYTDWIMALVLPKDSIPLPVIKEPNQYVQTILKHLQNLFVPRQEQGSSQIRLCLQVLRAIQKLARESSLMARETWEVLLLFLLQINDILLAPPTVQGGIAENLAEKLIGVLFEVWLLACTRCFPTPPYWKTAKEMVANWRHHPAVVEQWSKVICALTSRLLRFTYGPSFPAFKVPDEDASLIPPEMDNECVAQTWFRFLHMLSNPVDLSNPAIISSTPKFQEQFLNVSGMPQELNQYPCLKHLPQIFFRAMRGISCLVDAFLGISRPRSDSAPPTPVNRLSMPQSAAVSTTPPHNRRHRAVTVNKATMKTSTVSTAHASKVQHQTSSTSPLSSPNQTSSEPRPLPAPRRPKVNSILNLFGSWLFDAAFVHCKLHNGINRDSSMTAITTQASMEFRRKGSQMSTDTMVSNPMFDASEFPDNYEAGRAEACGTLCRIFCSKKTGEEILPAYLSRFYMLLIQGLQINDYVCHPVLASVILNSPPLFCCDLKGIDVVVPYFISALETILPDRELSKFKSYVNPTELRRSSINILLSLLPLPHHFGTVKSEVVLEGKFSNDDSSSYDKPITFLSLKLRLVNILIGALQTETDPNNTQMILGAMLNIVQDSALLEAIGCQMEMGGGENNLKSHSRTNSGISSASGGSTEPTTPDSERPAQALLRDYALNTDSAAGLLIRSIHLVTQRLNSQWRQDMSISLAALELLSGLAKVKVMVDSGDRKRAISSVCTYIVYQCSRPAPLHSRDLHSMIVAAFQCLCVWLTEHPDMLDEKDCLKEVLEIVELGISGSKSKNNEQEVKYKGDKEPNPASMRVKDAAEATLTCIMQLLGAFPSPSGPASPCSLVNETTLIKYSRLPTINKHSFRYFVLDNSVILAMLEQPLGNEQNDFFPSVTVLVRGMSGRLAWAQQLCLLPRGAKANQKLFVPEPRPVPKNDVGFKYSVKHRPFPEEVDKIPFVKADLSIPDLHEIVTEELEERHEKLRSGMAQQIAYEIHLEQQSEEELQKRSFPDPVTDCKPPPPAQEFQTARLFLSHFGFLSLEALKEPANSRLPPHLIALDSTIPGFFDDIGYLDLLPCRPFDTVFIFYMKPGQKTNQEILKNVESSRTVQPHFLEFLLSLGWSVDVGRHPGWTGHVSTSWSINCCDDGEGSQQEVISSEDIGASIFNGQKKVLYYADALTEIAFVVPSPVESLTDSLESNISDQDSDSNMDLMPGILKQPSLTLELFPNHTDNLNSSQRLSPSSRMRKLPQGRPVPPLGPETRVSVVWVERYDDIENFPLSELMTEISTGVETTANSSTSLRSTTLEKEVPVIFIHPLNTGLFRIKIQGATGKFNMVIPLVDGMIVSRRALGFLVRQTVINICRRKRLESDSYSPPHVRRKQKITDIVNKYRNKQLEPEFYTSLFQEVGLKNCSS
UniProt P51148: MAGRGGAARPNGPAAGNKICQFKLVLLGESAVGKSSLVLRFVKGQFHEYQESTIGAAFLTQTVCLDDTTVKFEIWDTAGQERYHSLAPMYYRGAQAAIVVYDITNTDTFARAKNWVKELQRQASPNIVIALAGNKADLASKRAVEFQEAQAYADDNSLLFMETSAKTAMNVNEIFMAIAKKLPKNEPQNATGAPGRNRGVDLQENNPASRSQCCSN

Assays:
Experiment in all cases: log2 fold change, soluble protein after heating vs DMSO (PISA); higher = thermal stabilisation; K562 lysate, 10 uM; active = over 0.2 and 3.5 SD of the protein, either way, in both replicates (recomputed)
alvocidib = compound: CN1CC[C@H](c2c(O)cc(O)c3c(=O)cc(-c4ccccc4Cl)oc23)[C@H](O)C1 [alvocidib]
Method in brief: (§1)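 K562 pellets were dounce-homogenised in PBS pH 7.4 containing 1 mM MgCl2, and the crude extract, at 1 mg/mL protein, was exposed to 10 μM compound for 30 min. Aliquots were heated for 3 min across 48°C-58°C, pooled, brought to 0.5% NP-40 at 4°C and spun at 21,000xg for 90 min, with the supernatant taken as soluble protein. TMTpro 16plex LC-MS/MS with equalised channel sums quantified that protein. Values are log-two fold changes in thermal stability relative to solvent controls, taken from duplicates.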

Tubastatin A = compound: CN1CCc2c(c3ccccc3n2Cc2ccc(C(=O)NO)cc2)C1 [Tubastatin A]
Method in brief: as §1

[1] = compound: CNC(=O)C1=CC=CC=C1NC2=NC(=NC=C2Cl)NC3=C(C=C(C=C3)N4CCOCC4)OC
Method in brief: as §1

defactinib = compound: CNC(=O)c1ccc(Nc2ncc(C(F)(F)F)c(NCc3nccnc3N(C)S(C)(=O)=O)n2)cc1 [defactinib]
Method in brief: as §1

[2] = compound: CNc1nc(-c2ccc3c(N)n[nH]c3c2)cc(N2C[C@@H](C(=O)NC3CCCCC3)CC[C@H]2C)n1
Method in brief: as §1

encorafenib = compound: COC(=O)N[C@@H](C)CNc1nccc(-c2cn(C(C)C)nc2-c2cc(Cl)cc(NS(C)(=O)=O)c2F)n1 [encorafenib]
Method in brief: as §1

[3] = compound: COC(=O)[C@H](CCSC)NC(=O)C1=C(C=C(C=C1)NC[C@H](CS)N)C2=CC=CC=C2
Method in brief: as §1

alisertib = compound: COc1cc(Nc2ncc3c(n2)-c2ccc(Cl)cc2C(c2c(F)cccc2OC)=NC3)ccc1C(=O)O [alisertib]
Method in brief: as §1

[4] = compound: COc1cc2nc(-c3cc(F)ccc3O)nc(N[C@@H]3CNC[C@H]3C(C)(C)O)c2cc1OC
Method in brief: as §1

gefitinib = compound: COc1cc2ncnc(Nc3ccc(F)c(Cl)c3)c2cc1OCCCN1CCOCC1 [gefitinib]
Method in brief: as §1

Measured: log2 fold change

RALBP1 (UniProt Q15311)
inactive: alvocidib 0.006 | Tubastatin A -0.023 | [1] -0.011 | defactinib 0.008 | [2] -0.053 | encorafenib 0.014 | [3] 0.17 | alisertib -0.003 | [4] -0.001 | gefitinib 0.004

RAN (UniProt P62826)
inactive: alvocidib 0.019 | Tubastatin A 0.052 | [1] -0.015 | defactinib -0.016 | [2] -0.031 | encorafenib -0.045 | [3] -0.035 | alisertib 0.011 | [4] 0.005 | gefitinib 0.003

RAD23B (UniProt P54727)
inactive: alvocidib -0.02 | Tubastatin A 0.047 | [1] -0.031 | defactinib -0.016 | [2] -0.013 | encorafenib -0.022 | [3] -0.019 | alisertib -0.011 | [4] 0.012 | gefitinib 0.028

RANGAP1 (UniProt P46060)
inactive: alvocidib 0.015 | Tubastatin A -0.064 | [1] 0.008 | defactinib 0.001 | [2] -0.027 | encorafenib -0.008 | [3] 0.03 | alisertib 0.026 | [4] 0.005 | gefitinib 0.007

RAD21 (UniProt O60216)
inactive: alvocidib -0.006 | Tubastatin A -0.008 | [1] 0.007 | defactinib 0.021 | [2] -0.027 | encorafenib -0.017 | [3] -0.016 | alisertib -0.012 | [4] 0 | gefitinib 0.042

PYGL (UniProt P06737)
inactive: alvocidib 0.168 | Tubastatin A 0.006 | [1] -0.012 | defactinib -0.016 | [2] -0.05 | encorafenib -0.031 | [3] -0.012 | alisertib -0.005 | [4] -0.006 | gefitinib 0.011

RAB27A (UniProt P51159)
inactive: alvocidib 0.087 | Tubastatin A -0.083 | [1] 0.047 | defactinib -0.001 | [2] -0.131 | encorafenib 0.027 | [3] 0.016 | alisertib -0.004 | [4] 0.041 | gefitinib 0.068

QTRT2 isoform 4 (UniProt Q9H974)
inactive: alvocidib -0.105 | Tubastatin A 0.003 | [1] 0.018 | defactinib -0.014 | [2] 0 | encorafenib -0.018 | [3] -0.044 | alisertib 0.016 | [4] 0.008 | gefitinib 0.031

RAB3B (UniProt P20337)
inactive: alvocidib 0.112

RAI14 isoform 2 (UniProt Q9P0K7)
inactive: alvocidib 0.019 | Tubastatin A -0.08 | [1] 0.003 | defactinib 0.031 | [2] 0.077 | encorafenib 0.012 | [3] 0.083 | alisertib -0.018 | [4] 0 | gefitinib 0.029

RABL6 (UniProt Q3YEC7)
inactive: alvocidib -0.041 | Tubastatin A 0.01 | [1] 0.056 | defactinib 0.019 | [2] -0.007 | encorafenib 0.023 | [3] -0.026 | alisertib 0.011 | [4] -0.021 | gefitinib 0.016

RAB11B (UniProt Q15907)
inactive: alvocidib 0 | Tubastatin A 0.093 | [1] -0.03 | defactinib -0.015 | [2] -0.009 | encorafenib -0.036 | [3] -0.019 | alisertib 0.037 | [4] 0.028 | gefitinib 0.014

RABGGTB (UniProt P53611)
inactive: alvocidib -0.015 | Tubastatin A -0.043 | [1] -0.025 | defactinib 0.031 | [2] -0.021 | encorafenib 0.044 | [3] 0.065 | alisertib 0.005 | [4] 0.002 | gefitinib -0.002

RABEP2 (UniProt Q9H5N1)
inactive: alvocidib 0.024 | Tubastatin A -0.037 | [1] 0.054 | defactinib -0.016 | [2] 0.016 | encorafenib 0.002 | [3] 0.03 | alisertib 0.004 | [4] -0.011 | gefitinib -0.041

QARS (UniProt P47897)
inactive: alvocidib 0.029 | Tubastatin A -0.064 | [1] -0.016 | defactinib 0.043 | [2] -0.01 | encorafenib 0 | [3] 0.102 | alisertib -0.006 | [4] -0.001 | gefitinib -0.014

RAB8B (UniProt Q92930)
inactive: alvocidib 0.037 | Tubastatin A 0.034 | [1] -0.011 | defactinib -0.016 | [2] -0.026 | encorafenib -0.002 | [3] -0.045 | alisertib 0.016 | [4] 0.015 | gefitinib 0.115

RAD23A (UniProt P54725)
inactive: alvocidib 0.007 | Tubastatin A 0.024 | [1] -0.048 | defactinib -0.04 | [2] -0.01 | encorafenib -0.048 | [3] -0.049 | alisertib 0.018 | [4] -0.007 | gefitinib 0.014

RANBP10 (UniProt Q6VN20)
inactive: alvocidib 0.031 | Tubastatin A -0.01 | [1] 0.034 | defactinib 0.057 | [2] 0.019 | encorafenib -0.023 | [3] 0.057 | alisertib 0.01 | [4] -0.033 | gefitinib -0.062

RAP1A (UniProt P62834)
inactive: alvocidib -0.009 | Tubastatin A 0.048 | [1] 0.012 | defactinib -0.007 | [2] 0.024 | encorafenib -0.01 | [3] -0.031 | alisertib -0.04 | [4] 0.024 | gefitinib -0.058

RAB9A (UniProt P51151)
inactive: alvocidib 0.063 | Tubastatin A 0.03 | [1] -0.02 | defactinib 0.037 | [2] 0.029 | encorafenib 0.02 | [3] -0.032 | alisertib 0 | [4] 0.076 | gefitinib 0.066

RAB23 (UniProt Q9ULC3)
inactive: alvocidib -0.065 | Tubastatin A 0.085 | [1] -0.061 | defactinib -0.005 | [2] -0.162 | encorafenib 0.027 | [3] 0.048 | alisertib 0.063 | [4] 0.061 | gefitinib 0.054

RAD1 (UniProt O60671)
inactive: alvocidib -0.026 | Tubastatin A -0.037 | [1] 0.062 | defactinib -0.013 | [2] 0.011 | encorafenib -0.028 | [3] 0 | alisertib 0.038 | [4] -0.032 | gefitinib -0.035

R3HCC1L, A0A384DVK4
inactive: alvocidib -0.047 | Tubastatin A -0.067 | [1] 0.04 | defactinib 0.032 | [2] -0.012 | encorafenib 0.074 | [3] 0 | alisertib 0.014 | [4] -0.041 | gefitinib 0.007

RAB10 (UniProt P61026)
inactive: alvocidib 0.003 | Tubastatin A 0.051 | [1] -0.032 | defactinib 0.003 | [2] 0.02 | encorafenib 0.019 | [3] -0.02 | alisertib 0.06 | [4] 0.082 | gefitinib 0.073

RACK1 (UniProt P63244)
inactive: alvocidib 0.048 | Tubastatin A -0.059 | [1] -0.01 | defactinib -0.034 | [2] -0.06 | encorafenib -0.004 | [3] 0.037 | alisertib 0.015 | [4] -0.004 | gefitinib -0.013

RAB8A (UniProt P61006)
inactive: alvocidib 0.019 | Tubastatin A 0.011 | [1] -0.026 | defactinib -0.001 | [2] -0.093 | encorafenib 0.05 | [3] -0.034 | alisertib 0.006 | [4] 0.04 | gefitinib 0.034

RALGAPB (UniProt Q86X10)
inactive: alvocidib 0.02 | Tubastatin A -0.056 | [1] -0.069 | defactinib 0.026 | [2] 0.012 | encorafenib 0.044 | [3] 0.015 | alisertib 0 | [4] 0.032 | gefitinib -0.007

RAB5C isoform 2 (UniProt P51148)
inactive: alvocidib -0.034 | Tubastatin A 0.056 | [1] -0.01 | defactinib 0.014 | [2] 0.004 | encorafenib -0.002 | [3] -0.103 | alisertib 0.016 | [4] 0.03 | gefitinib -0.005

Reprinted at random: 2 entries already listed.
RAB8B (UniProt Q92930)
inactive: alvocidib 0.037 | Tubastatin A 0.034 | [1] -0.011 | defactinib -0.016 | [2] -0.026 | encorafenib -0.002 | [3] -0.045 | alisertib 0.016 | [4] 0.015 | gefitinib 0.115

QTRT2 isoform 4 (UniProt Q9H974)
inactive: alvocidib -0.105 | Tubastatin A 0.003 | [1] 0.018 | defactinib -0.014 | [2] 0 | encorafenib -0.018 | [3] -0.044 | alisertib 0.016 | [4] 0.008 | gefitinib 0.031
